# Laboratory results: US5998468A, “Furanone endothelin antagonists” (Warner-Lambert Company, priority 1997, dated 1999)
# At least one compound was matched to its structure with a doubt left.
# Target: endothelin receptor ETB
# Assay: Endothelin receptor binding assay-B (ERBA-B), [125I]-ET-1 binding in rat cerebellar membranes
# Conditions: [125I]-ET-1 25 pM, rat cerebellar membranes (also modified with human ETB in CHO-K1)
# Source text: The compounds of Formula I are valuable antagonists of endothelin.
# Count filters for radioactivity in gamma counter.
# The above process has also been modified by using human recombinant CHO-K1 cells.
# The tissue used for human ETB was recombinant human ETB receptor expressed in CHO-K1 cells (chinese hamster ovary cells). The gene for human ETB receptor was cloned and inserted into the pRc-CMW expression vector, then transfected into CHO-K1 cells by electroporation. For binding assays, membranes (0.7 mg protein) of CHO-K1 cells expressing recombinant human ETB receptor were used.
row,Structure (SMILES),IC50 [µM]
1,"COc1ccc(C2OC(=O)C(c3ccc4c(c3)OCO4)=C2Cc2ccc(OC)c(C)c2)cc1 (stereo not drawn) [Example 4, 3-Benzo[1,3]dioxol-5-yl-4-(4-methoxy-3-methylbenzyl)-5-(4-methoxyphenyl)-5H-furan-2-one]",> 2.5
2,"COc1ccc(C2OC(=O)C(c3ccc4c(c3)OCO4)=C2Cc2cc(OC)c(OC)c(OC)c2)cc1 (stereo not drawn) [Example 2, 3-Benzo[1,3]dioxol-5-yl-5-(4-methoxyphenyl)-4-(3,4,5-trimethoxybenzyl)-5H-furan-2-one]",> 2.5
3,"COc1ccc(CC2=C(c3ccc4c(c3)OCO4)C(=O)OC2c2cc(OC)c(OC)c(OC)c2)cc1 (stereo not drawn) [Example 3, 3-Benzo[1,3]dioxol-5-yl-4-(4-methoxybenzyl)-5-(3,4,5-trimethoxyphenyl)-5H-furan-2-one]",> 2.5
